# Results of single-concentration screens

Measurements from “University of Dundee, Small-Polar-MMV Screening Library” (2021), ChEMBL document CHEMBL3988442.

The filed quantity is “Percent Effect” (%).
How 0% and 100% were set is not recorded. Most values in the screen are low, and negative values occur.
The compounds are a random part of those screened.
Two or more numbers in one place are separate tests of the same structure; such repeats can differ widely.

A: 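Phenotypic screen: M. tuberculosis growth, glucose 7H9 medium, 3 days; the read-out is not stated. Concentration: 50 µM. The record gives no direction; compounds that gave an IC50 in retests scored well above the rest, so higher reads as more growth inhibition. About 69,000 compounds were tested under these conditions; 1.1% (about 760) showed 50% or more at least once.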
B: 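Phenotypic screen: M. tuberculosis growth, cholesterol and DPPC medium, 4 days; the read-out is not stated. Compounds at 50 µM. The record gives no direction; compounds that gave an IC50 in retests scored well above the rest, so higher reads as more growth inhibition. Size under these conditions: about 69,000 compounds, about 370 of them at 50% or above in at least one test.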

compound | A | B
Cn1cnc2c1C(COCC1CC1)CN(C(=O)Cc1ccsc1)C2.O=C(O)C(F)(F)F (stereo unspecified) | -0.3034 | -12.83
Cc1nc(NC(=O)NC2CC(=O)N(C)C2)nn1C(C)C (stereo unspecified) | 29.88 | 2.834
CC(C)CN1CCC2(C1)CN(c1ncccn1)C2.O=C(O)C(F)(F)F | -8.873 | -20.56
[H][C@]12CNCCN1C[C@H](c1ccccc1)[C@H]2C(=O)OCC | 3.089 | -4.773
[H][C@]12CN(CCOC)C(=O)[C@@]1([H])CN(c1ncc(F)cn1)C2 | 13.87 | -8.806
Cn1cc(C2CCCN2C(=O)Cc2n[nH]c3ccccc23)cn1 (stereo unspecified) | 1.231 | -5.508
CC(C)Oc1ccc(CNC(=O)CCN2C(=O)CCC2=O)cc1F | 29.09 | -1.864
CCc1cnc(N2CCOC(CCOC)C2)nc1 (stereo unspecified) | 9.958 | -5.677
O=C(O)C(F)(F)F.O=C(O)C(F)(F)F.[H][C@@]12CN(Cc3cccc(F)c3)C[C@]1([H])CN(c1ncccn1)C2 | 11.01 | 5.822
COC1(CNC(=O)NCc2ccccc2)CCSC1 (stereo unspecified) | -4.543 | -6.741
O=c1cc(CN2CCCC2)nc2n1CCCN(CC1CC1)C2 | 39.94 | -8.43
CCC(C)NC(=O)c1cncc(Br)c1 (stereo unspecified) | -1.287 | -16.85
CS(=O)(=O)c1cccc(C(=O)NCC2(c3ccccc3)CC2)c1 | -0.8527 | -12.39
Cc1ccnc(C2CN(Cc3cnn(-c4ccccc4C(=O)O)c3)C2)n1 | -13.75 | -6.368 and 3.471
CN1N=C(C(=O)NCCc2ccc(OC3CCCC3)cc2)CCC1=O | 4.922 | 21.9
CS(=O)(=O)N1CC[C@]2(C[C@@H](Oc3ccccn3)CO2)C1.O=C(O)C(F)(F)F | 0.1409 and 25.34 | -0.9514
CCCS(=O)(=O)NCC(C)(O)c1ccsc1 (stereo unspecified) | 6.637 | -0.8367
Cc1ccsc1CN(C)c1cc(N2CCOCC2)ncn1 | -10.46 | 2.211
O=C(Nc1ccc2c(c1)OCO2)N1CCCC1c1ccco1 (stereo unspecified) | -7.936 and 1.933 | 10.98
Cc1nc(C2CCCN2C(=O)CNS(C)(=O)=O)no1 (stereo unspecified) | -39.34 | -21.77
COc1cccc2c1OCCCN(c1nc(N)nc3c1CCNC3)C2 | 44.69 | -13.91
CN1CCN(C)C(c2nnc3ccc(C(=O)N4CCOCC4)cn23)C1.O=C(O)C(F)(F)F.O=C(O)C(F)(F)F (stereo unspecified) | 6.004 | 13.57
COc1ncc(-c2cc(NC3CCCC3)nc3[nH]ccc23)c(OC)n1 | 1.028 | 41.31
CCN(CC)Cc1ccc(C(=O)NC2CCc3cc(Cl)ccc32)o1 (stereo unspecified) | -6.189 | -17.98
[H][C@@]12CS(=O)(=O)C[C@]1([H])N(Cc1nc(C)n[nH]1)CCN2CC1CC1 | -58.98 and -4.609 | -37.91
O=C(NCC1CCN(Cc2cc3ccccc3[nH]2)C1)C1CCCCC1 (stereo unspecified) | 13.96 | -4.456
COc1ccc(CNC(=O)NCCc2nc(C)c(C)s2)cn1 | -6.902 | 10.91
O=C(O)C(F)(F)F.[H][C@]12CCN(Cc3cccc(C#N)c3)C[C@@]1([H])OCCN(c1ncccn1)C2 | -27.68 | -20.23
CCOC(=O)C1CN(C(=O)C2CCOCC2)Cc2ncn(CC)c21 (stereo unspecified) | -9.504 and -33.26 | -10.11
Cc1c(C)n(Cc2ccccn2)c2nc3c(c(N)c12)CCCCC3 | 20.3 | -7.144
[H][C@]12CCN(S(=O)(=O)c3ccc(F)cc3)[C@@]1([H])CC[C@@H](COC)O2 | -5.362 | -25.88
CN(CCC#N)C(=O)CSc1cc(F)ccc1F | 1.781 | -6.245
CCCc1cc(CNc2cc(CCC)nc3ccnn23)on1 | -4.535 | -15.22
CCC(C)(C)NC(=O)c1ccc(NC(=O)NCc2cc(C)on2)cc1 | -5.347 and -8.114 | 6.76
c1ccc(N2CCc3ncnc(C4CC4)c3CC2)nc1 | -14.34 | -11.14
CN(CCc1noc(C2CC2)n1)C(=O)C1(N2CCCC2)CCCC1 | 7.071 | -2.887
CC1(C)CN(CC(=O)NCc2ccccc2F)C[C@]1(C)O | 5.818 | -5.342
CC(C)Cn1cc(NCc2cscn2)cn1 | -4.406 | -4.534
Cc1nnc2n1CCN(Cc1ccc3c(c1)OCCO3)C2 | -18.18 | 6.122
CN(C(=O)Cc1coc(-c2cccs2)n1)C1(C#N)CCC1 | 36.96 | 7.539
COC1CCN(Cc2csc(C(C)C)n2)CC1 | -29.64 | -10.34
Cc1c(C(C)NC2CSCCSC2)cnn1-c1ccc(F)cc1F (stereo unspecified) | 25.25 | 8.801
Cc1nc(CCN(C)C(=O)CN2CCCCCC2)no1 | -4.287 and -15.06 | -4.579
Cn1cnnc1C1CCN(C(=O)COCc2ccccc2Cl)CC1 | 0.9553 | 1.829
COC(=O)c1ccc(F)c(S(=O)(=O)Nc2ccc(C(N)=O)cc2)c1 | -45.51 and -2.863 | -27.19
CC1CN(C)CCN1Cc1cccc(C(=O)N(C)C)c1 (stereo unspecified) | -20.02 | -19.66
O=C(N[C@@H]1CCNC[C@H]1O)c1ccc(F)c(F)c1 | -13.09 | -23.7
CO[C@@H]1CCN(S(=O)(=O)c2cccs2)[C@H]1Cc1ccccc1 | 14.57 | -23.77
CC(NC(=O)OC(C)(C)C)c1nnc(S(=O)(=O)Cc2ccc(Cl)cc2)o1 (stereo unspecified) | 43.51 | 30.37
c1ccc(-c2cccc(N3CCC(NCCc4cscn4)CC3)c2)cc1 | 37.86 | 30.21
Cc1ccc(-n2cnnn2)cc1NCC(=O)Nc1ccccc1Cl | -2.716 | -5.216
COc1c(C)cnc(CN(C)C2CCOC3(CCOCC3)C2)c1C (stereo unspecified) | -33.16 | -19.63
CC(=O)N1CCCC(c2ncncc2-c2ccncc2)C1 (stereo unspecified) | 20.6 | -12.74
Cc1ncc2c(n1)CCCC2NC(=O)c1ccccc1Cn1cncn1 (stereo unspecified) | 7.049 | 10.91
Cn1cc(S(=O)(=O)N2CCCC2Cn2ccnc2)cc1C(N)=O (stereo unspecified) | 20.55 | -5.401
CC(C)CN1CC2(CCN(C(=O)C3CSC(C)(C)C(=O)N3)CC2)CC1=O (stereo unspecified) | -20.82 | -14.29
c1ccc(-n2ncc(CN3CCCC3Cn3cccn3)n2)cc1 (stereo unspecified) | 38.69 | 20.2
CC(C#N)CSc1ccccc1NCC(=O)NCc1ccccc1 (stereo unspecified) | 12.77 and -1.899 | -3.163
CC(C)c1nc(CN2CCCN(Cc3nnc(C4CC4)o3)CC2)no1 | -8.476 | -35.96
c1cn2c(n1)CNCC(COCC1CC1)C2 (stereo unspecified) | -1.621 and -1.402 | -1.562

Once more, the final 4:

- c1ccc(-n2ncc(CN3CCCC3Cn3cccn3)n2)cc1 (stereo unspecified) : A: 38.69%; B: 20.2%
- CC(C#N)CSc1ccccc1NCC(=O)NCc1ccccc1 (stereo unspecified) : A: 12.77% and -1.899%; B: -3.163%
- CC(C)c1nc(CN2CCCN(Cc3nnc(C4CC4)o3)CC2)no1 : A: -8.476%; B: -35.96%
- c1cn2c(n1)CNCC(COCC1CC1)C2 (stereo unspecified) : A: -1.621% and -1.402%; B: -1.562%